# Assay results: publication PMC7909667
# By UniProt entry, the sequences of proteins in these tests, tags left out. Residues count along the entry.
# UniProt P04114, residues 28-4563: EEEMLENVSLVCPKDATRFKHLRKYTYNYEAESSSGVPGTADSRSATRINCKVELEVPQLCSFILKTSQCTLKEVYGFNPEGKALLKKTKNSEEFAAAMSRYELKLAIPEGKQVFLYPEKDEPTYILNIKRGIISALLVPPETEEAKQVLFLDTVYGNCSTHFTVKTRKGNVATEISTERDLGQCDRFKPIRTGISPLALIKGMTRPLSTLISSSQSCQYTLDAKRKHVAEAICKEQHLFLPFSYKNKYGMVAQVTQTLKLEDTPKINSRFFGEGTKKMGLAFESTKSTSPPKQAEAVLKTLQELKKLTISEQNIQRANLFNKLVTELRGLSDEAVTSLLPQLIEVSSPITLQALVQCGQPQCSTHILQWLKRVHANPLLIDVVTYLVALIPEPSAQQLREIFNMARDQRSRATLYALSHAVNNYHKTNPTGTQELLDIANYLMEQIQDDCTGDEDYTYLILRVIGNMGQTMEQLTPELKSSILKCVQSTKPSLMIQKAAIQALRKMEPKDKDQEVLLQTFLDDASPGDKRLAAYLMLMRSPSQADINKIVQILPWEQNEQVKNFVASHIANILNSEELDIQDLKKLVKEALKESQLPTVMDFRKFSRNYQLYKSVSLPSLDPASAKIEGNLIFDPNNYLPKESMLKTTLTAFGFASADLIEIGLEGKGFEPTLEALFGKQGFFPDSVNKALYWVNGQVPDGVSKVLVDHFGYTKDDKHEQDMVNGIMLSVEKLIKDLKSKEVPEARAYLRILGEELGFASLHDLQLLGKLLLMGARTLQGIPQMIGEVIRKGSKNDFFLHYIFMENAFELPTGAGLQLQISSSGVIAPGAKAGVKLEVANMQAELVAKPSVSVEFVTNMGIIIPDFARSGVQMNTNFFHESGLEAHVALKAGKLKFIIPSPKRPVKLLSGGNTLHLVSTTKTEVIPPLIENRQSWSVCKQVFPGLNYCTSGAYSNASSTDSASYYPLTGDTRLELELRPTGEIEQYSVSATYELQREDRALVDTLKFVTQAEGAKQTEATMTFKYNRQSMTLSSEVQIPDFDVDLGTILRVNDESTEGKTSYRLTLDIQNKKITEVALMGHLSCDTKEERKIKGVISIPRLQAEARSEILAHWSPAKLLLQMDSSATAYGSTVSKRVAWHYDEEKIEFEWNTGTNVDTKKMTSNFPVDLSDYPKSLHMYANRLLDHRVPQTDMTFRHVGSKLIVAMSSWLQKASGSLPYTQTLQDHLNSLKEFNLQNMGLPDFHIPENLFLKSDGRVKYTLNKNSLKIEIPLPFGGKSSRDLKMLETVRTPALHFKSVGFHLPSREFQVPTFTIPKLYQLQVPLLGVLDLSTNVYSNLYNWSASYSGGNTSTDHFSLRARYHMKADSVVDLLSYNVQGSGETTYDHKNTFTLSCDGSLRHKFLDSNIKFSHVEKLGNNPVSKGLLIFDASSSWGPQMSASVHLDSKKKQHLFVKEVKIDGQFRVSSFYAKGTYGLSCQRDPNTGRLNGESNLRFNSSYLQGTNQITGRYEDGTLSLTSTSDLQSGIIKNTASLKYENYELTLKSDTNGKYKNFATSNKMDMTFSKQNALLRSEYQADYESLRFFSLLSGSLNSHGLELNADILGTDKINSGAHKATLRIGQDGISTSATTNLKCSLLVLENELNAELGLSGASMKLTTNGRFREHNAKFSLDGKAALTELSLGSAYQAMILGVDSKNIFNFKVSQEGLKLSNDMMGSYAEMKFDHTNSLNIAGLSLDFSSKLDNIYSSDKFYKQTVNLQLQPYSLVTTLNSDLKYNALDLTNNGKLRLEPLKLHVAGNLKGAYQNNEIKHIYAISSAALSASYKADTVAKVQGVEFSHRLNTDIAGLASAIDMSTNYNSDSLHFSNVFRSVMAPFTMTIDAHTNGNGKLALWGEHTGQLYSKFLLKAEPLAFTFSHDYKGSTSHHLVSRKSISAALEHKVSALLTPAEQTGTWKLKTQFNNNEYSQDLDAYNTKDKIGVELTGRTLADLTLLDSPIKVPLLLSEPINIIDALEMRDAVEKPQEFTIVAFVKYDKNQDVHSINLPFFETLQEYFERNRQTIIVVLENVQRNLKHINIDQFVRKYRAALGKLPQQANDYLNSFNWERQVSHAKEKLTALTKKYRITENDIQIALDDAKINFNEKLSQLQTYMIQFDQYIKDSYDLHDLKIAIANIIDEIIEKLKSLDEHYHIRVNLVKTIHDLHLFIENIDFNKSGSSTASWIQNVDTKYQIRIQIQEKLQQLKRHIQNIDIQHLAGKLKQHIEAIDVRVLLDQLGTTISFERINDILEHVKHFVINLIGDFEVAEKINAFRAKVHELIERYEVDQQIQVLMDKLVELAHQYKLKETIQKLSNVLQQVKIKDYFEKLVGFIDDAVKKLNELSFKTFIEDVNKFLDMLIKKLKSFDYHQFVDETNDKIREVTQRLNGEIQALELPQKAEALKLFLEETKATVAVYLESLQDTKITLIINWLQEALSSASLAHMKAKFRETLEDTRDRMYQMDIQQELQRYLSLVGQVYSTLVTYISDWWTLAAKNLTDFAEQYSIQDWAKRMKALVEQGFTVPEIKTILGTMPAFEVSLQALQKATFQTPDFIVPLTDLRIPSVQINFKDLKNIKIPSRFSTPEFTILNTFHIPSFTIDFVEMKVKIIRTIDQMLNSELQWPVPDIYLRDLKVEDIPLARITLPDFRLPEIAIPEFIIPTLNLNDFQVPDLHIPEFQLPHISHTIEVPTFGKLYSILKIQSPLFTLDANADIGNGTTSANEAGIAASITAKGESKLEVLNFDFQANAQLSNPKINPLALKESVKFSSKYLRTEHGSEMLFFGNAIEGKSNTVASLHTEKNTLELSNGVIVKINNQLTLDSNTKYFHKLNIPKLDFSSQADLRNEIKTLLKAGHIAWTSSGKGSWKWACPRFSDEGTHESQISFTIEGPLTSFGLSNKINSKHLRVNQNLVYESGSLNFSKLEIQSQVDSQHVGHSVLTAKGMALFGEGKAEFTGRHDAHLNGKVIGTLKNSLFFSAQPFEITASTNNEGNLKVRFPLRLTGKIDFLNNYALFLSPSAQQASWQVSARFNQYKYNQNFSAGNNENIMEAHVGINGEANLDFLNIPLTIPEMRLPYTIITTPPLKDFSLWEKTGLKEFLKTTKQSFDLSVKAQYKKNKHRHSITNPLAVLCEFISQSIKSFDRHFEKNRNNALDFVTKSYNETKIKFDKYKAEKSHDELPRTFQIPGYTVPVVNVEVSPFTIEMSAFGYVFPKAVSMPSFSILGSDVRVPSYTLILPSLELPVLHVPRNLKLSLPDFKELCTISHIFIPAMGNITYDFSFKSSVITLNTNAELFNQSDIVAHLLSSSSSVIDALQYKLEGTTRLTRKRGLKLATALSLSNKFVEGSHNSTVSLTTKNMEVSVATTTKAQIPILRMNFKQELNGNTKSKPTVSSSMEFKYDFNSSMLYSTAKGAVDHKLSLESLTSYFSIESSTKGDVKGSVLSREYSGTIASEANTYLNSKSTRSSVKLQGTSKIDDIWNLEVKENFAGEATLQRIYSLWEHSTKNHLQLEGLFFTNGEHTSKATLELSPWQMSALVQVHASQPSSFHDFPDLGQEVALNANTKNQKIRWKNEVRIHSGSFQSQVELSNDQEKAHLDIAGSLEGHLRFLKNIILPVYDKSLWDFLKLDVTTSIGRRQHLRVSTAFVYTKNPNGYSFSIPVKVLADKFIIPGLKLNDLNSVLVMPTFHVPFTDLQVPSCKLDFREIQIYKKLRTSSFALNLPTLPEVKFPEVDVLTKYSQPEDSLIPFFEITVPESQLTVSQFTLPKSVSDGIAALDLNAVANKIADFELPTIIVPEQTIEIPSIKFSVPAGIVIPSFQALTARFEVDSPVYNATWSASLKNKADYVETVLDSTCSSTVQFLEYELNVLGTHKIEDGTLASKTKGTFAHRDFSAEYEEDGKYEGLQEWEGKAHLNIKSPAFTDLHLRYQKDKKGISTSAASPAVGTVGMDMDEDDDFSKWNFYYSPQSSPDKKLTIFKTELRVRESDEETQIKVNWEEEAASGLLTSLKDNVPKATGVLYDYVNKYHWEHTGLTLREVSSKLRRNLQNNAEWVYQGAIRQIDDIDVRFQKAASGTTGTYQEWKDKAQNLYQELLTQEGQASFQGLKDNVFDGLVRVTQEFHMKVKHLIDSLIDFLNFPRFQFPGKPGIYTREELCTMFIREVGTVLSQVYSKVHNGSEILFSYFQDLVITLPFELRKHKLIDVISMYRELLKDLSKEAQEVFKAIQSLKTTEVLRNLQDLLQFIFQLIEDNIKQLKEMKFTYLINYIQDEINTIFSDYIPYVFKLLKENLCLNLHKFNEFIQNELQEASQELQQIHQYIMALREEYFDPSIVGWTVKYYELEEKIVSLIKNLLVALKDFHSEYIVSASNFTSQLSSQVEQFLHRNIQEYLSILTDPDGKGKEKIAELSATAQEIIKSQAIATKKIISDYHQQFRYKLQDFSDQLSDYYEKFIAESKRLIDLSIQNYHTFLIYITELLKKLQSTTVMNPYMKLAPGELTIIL
# UniProt Q9UKV5: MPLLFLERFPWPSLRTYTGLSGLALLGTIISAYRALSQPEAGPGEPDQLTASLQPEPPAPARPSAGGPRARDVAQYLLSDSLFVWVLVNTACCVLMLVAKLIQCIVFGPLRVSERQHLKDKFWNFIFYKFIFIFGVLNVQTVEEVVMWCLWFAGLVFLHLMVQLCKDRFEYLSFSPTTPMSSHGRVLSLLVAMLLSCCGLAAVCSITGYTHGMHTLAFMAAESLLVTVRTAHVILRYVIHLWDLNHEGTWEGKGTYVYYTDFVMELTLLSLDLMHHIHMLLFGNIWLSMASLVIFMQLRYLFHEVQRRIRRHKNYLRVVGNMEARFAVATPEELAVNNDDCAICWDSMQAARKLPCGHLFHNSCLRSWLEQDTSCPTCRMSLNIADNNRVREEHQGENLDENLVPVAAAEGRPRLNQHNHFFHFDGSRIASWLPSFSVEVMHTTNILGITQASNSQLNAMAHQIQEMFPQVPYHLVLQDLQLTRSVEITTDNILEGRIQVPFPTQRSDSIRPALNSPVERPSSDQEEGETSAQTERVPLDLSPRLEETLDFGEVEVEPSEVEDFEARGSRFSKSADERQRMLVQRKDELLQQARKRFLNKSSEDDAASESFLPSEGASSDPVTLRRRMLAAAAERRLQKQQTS
# These are yes or no findings as the source states them, for the method shown. Binding seen in cells or lysates may run through a third protein. Some results given as binding are weak or reduced against the parent protein; the word gives no strength. Sequences can lack the tags named with a protein.
# B1: liver-specific zona pellucida domain-containing protein (LZP), ectopic, in mouse hepatocytes (protein, UniProt Q8R4V5 20-546)
# chain: AVLDPCSAYISLNEPWRNTDHQFDESQNQPLCDNHMNGEWYRFTGMAGDAMPTFCIPENHCGTHAPVWLNGSHPLEEDGIVQRQACASFKGNCCLWNATVEVKACPRGYYVYRLARPSVCFHVYCGHFYDICDEDCHGNCLDTTECACSPGTSLGPDGQTCFDENECEHNNGGCSEICVNLKNSHRCACGVGRVLRSDGKTCEDIEGCHNNNGGCSHSCLGSEEGYQCECPRGLVLSEDNHTCQVPVLCKSSAIEVSVPRELVGGLELFLTNTSCRGVSNGTHVNIVFSLKTCGTVVDVVNDKIVASNIVTGLPKETPGSSGDIIIRTSKLLIPVTCEFPRLYTISEGYVPNLRNAPLEIRSRNHGIFPFTLEIFKDHEFEEPYRETLPTLKLRDSLYFGIEPLVHVNGLESLVESCFATPTAKMDEILKYYLIQDGCVSDDSVKQYSSRDHLAKHFQAPVFKFVGKDHKEVFLHCRVLVCGVLDERSRCAQGCHRRVRREVGEDEDSAGLQSQTLTGGPIAIDWED
# B2: liver-specific zona pellucida domain-containing protein (LZP), ectopic, in HepG2 cells (protein, UniProt Q8WWZ8 23-545)
# chain: DPCSAYISLNEPWRNTDHQLDESQGPPLCDNHVNGEWYHFTGMAGDAMPTFCIPENHCGTHAPVWLNGSHPLEGDGIVQRQACASFNGNCCLWNTTVEVKACPGGYYVYRLTKPSVCFHVYCGHFYDICDEDCHGSCSDTSECTCAPGTVLGPDRQTCFDENECEQNNGGCSEICVNLKNSYRCECGVGRVLRSDGKTCEDVEGCHNNNGGCSHSCLGSEKGYQCECPRGLVLSEDNHTCQVPVLCKSNAIEVNIPRELVGGLELFLTNTSCRGVSNGTHVNILFSLKTCGTVVDVVNDKIVASNLVTGLPKQTPGSSGDFIIRTSKLLIPVTCEFPRLYTISEGYVPNLRNSPLEIMSRNHGIFPFTLEIFKDNEFEEPYREALPTLKLRDSLYFGIEPVVHVSGLESLVESCFATPTSKIDEVLKYYLIRDGCVSDDSVKQYTSRDHLAKHFQVPVFKFVGKDHKEVFLHCRVLVCGVLDERSRCAQGCHRRMRRGAGGEDSAGLQGQTLTGGPIRIDWED
# B3: microsomal triglyceride transfer protein (MTTP), mouse hepatocytes (protein, UniProt O08601 22-894)
# chain: HTTGLSLNNERLYKLTYSTEVFLDGGKGKPQDSVGYKISSDVDVVLLWRNPDGDDDQVIQVTITAVNVENAGQQRGEKSIFQGKSTPKIIGKDNLEALQRPMLLHLVRGKVKEFYSYENEPVGIENLKRGLASLFQMQLSSGTTNEVDISGDCKVTYQAQQDKVVKIKALDTCKIERSGFTTANQVLGVSSKATSVTTYKIEDSFVTAVLAEETRAFALNFQQTIAGKIVSKQKLELKTTEAGPRMIPGKQVAGVIKAVDSKYKAIPIVGQVLERVCKGCPSLAEHWKSIRKNLEPENLSKAEAVQSFLAFIQHLRTSRREEILQILKAEKKEVLPQLVDAVTSAQTPDSLEAILDFLDFKSDSSIILQERFLYACGFATHPDEELLRALLSKFKGSFASNDIRESVMIIIGALVRKLCQNEGCKLKAVVEAKKLILGGLEKPEKKEDTTMYLLALKNALLPEGIPLLLKYAEAGEGPVSHLATTVLQRYDVSFITDEVKKTLNRIYHQNRKVHEKTVRTTAAAVILKNPSYMDVKNILLSIGELPKEMNKYMLTVVQDILHFEMPASKMIRRVLKEMAVHNYDRFSKSGSSSAYTGYVERSPRAASTYSLDILYSGSGILRRSNLNIFQYIGKAELHGSQVVIEAQGLEGLIAATPDEGEENLDSYAGMSAILFDVQLRPVTFFNGYSDLMSKMLSASGDPVSVVKGLILLIDHSQDIQLQSGLKANMEIQGGLAIDISGSMEFSLWYRESKTRVKNRVAVVITSDVTVDASFVKAGVESRAETEAGLEFISTVQFSQYPFLVCMQMDKAEAPLRQFETKYERLSTGRGYVSRRRKESLVAGCELPLHQENSEMCNVVFPPQPESDNSGGWF
# Legend:
# [1] = molecular target: apolipoprotein B (apoB), endogenous, mouse hepatocytes or liver (mouse (endogenous in mouse hepatocytes)) (UniProt E9Q414); assay: co-IP; reciprocal co-immunoprecipitation of ectopic LZP and apoB in mouse hepatocytes and in HepG2 cells overexpressing LZP
# [2] = molecular target: apolipoprotein B (apoB), endogenous, HepG2 cells (human (endogenous in HepG2)) (UniProt P04114); assay: as above
# [3] = molecular target: AMFR (E3 ligase gp78), ectopic, in HepG2 cells (UniProt Q9UKV5); assay: co-IP; reciprocal co-immunoprecipitation with indicated antibodies in HepG2 cells ectopically expressing AMFR and LZP
# [4] = molecular target: T1, liver-specific zona pellucida domain-containing protein (LZP), endogenous, mouse hepatocytes (mouse (endogenous in mouse hepatocytes)) (UniProt Q8R4V5); assay: co-IP; co-immunoprecipitation of LZP with apoB, MTTP or BIP in hepatocytes isolated from WT mice
# T1 sequence: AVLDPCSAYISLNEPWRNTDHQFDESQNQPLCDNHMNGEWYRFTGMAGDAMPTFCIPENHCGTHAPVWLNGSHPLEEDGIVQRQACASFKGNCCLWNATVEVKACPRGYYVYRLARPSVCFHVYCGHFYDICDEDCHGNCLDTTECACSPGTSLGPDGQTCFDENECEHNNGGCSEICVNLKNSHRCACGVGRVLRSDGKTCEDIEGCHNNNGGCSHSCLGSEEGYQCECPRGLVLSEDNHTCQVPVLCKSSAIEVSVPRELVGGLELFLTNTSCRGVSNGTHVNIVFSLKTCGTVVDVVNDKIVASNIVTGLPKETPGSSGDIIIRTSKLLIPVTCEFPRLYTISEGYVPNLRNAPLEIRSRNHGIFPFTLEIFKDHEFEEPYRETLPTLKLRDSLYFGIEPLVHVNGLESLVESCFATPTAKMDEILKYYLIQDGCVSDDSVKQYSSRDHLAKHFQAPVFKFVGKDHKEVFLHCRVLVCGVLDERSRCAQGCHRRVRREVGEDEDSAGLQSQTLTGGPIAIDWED
binder,measurement,setting,value
B1,binding,[1],binds
B2,binding,[2],binds
same,binding,[3],binds
B3,binding,[4],binds
